Data taken from patent US8765768B2, “Heterocyclic compounds and their uses” (Amgen Inc., priority 2010, dated 2014).
Like-named read-outs stand apart in the source and are kept apart here. For at least one compound, name, drawing or mass did not settle the structure.

Experiments:
[1] = tested on: neutrophil migration; details: cited from earlier work
[2] = tested on: Class I PI 3-kinases; details: each of the Class I PI 3-kinases, cited from earlier work
[3] = tested on: superoxide release; details: neutrophil; cited from earlier work
[4] = tested on: MDA MB468 Forkhead-DiversaGFP Cells; experiment: Forkhead Translocation Assay; assay type: cell-based; details: control, 10 uM
[5] = tested on: U2OS EGFP-2×FYVE Cells; experiment: Class III PI(3)P Assay; assay type: cell-based; details: control, 10 uM
[6] = tested on: CHO-1R-AKT1-EGFP Cells; experiment: AKT Membrane Ruffling Assay; assay type: cell-based; details: control, 10 uM

Structure (SMILES) | neutrophil migration [1] | IC50 ([2]; read-out: IC50 values against each of these PI 3-kinases) [µM] | superoxide release [3] | IC50 ([2]; read-out: IC50 values against each of the various Class I PI 3-kinases) [µM] | Forkhead localisation [4] | PI(3)P on endosomes [5] | AKT localisation [6]
O=c1cc(N2CCOCC2)oc2c(-c3ccccc3)cccc12 [LY294002] | block | ~1 | block | – | – | – | –
COC[C@H]1OC(=O)c2coc3c2[C@@]1(C)C1=C(C3=O)[C@@H]2CCC(=O)[C@@]2(C)C[C@H]1OC(C)=O [wortmannin] | block | – | block | 0.001 to 0.01 | nuclear | depleted from endosomes | cytoplasmic
